# Measured values taken from PubChem BioAssay AID2417 (National Center for Advancing Translational Sciences (NCATS), 2010).
# Screen size: about 140,000 compounds; about 4,300 (3.1%) were called active. Inconclusive results, whose numbers are uncertain, are shown with a selection of clear calls.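 Rule for the calls: active = readout at or below -70, meaning at least 70% loss of cells showing the perinucleolar compartment, a nuclear body marking cancer cells; inconclusive = readout between -30 and a set limit; inactive = the rest.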
# Test: High Content Assay for Compounds that inhibit the Assembly of the Perinucleolar Compartment;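 note: plate controls were DMSO wells for no effect and camptothecin positive control wells for full effect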
# Details: PC3M PTB-GFP, PNC prevalence imaging, 16 h; at 10 µM; active compounds read low
# In short: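 PC3M cells stably expressing PTB-GFP, 750–1000 cells/well, treated 16 h at 37 °C with compound (23 nl of library stock), in duplicate. After paraformaldehyde fixation and Hoechst stain, imaged at 20x; PNC prevalence scored by image analysis.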
row,SMILES,"activity change (PNC), negative = inhibition"
1,CCCC1(C(=O)OCC)NC(c2ccc(N(C)C)cc2)C2C(=O)N(c3ccc(F)cc3)C(=O)C21 (stereo not given),inconclusive: -64.3%
2,CCn1c(/C(C#N)=N/O)nc2ccccc21,inconclusive: -33.5%
3,O=c1cc(CSc2nnc(COc3ccccc3)o2)c2ccccc2[nH]1,inconclusive: -54.7%
4,CCOC(=O)/C(=C\c1ccc(OC(F)F)cc1)C1=Nn2c(nnc2-c2ccc(Cl)cc2)SC1,inconclusive: -77.5%
5,COc1ccc(-c2oc(NC(=O)CSc3nncn3C)c(C#N)c2-c2ccc(OC)cc2)cc1,inconclusive: -31.2%
6,COc1ccc(/C=C/C(=O)Oc2ccc(/C=N/NC(=O)c3ccccc3)cc2)cc1OC,inconclusive: -62.8%
7,Cc1ccccc1OCC(O)Cn1c(NCc2ccccc2)nc2c1c(=O)[nH]c(=O)n2C (stereo not given),inactive: 24.4%
8,Cc1ccc(N(C(=O)Cc2cccs2)C(C(=O)NC2CCCCC2)c2ccccn2)cc1C (stereo not given),inconclusive: -35.9%
9,CN(CCOC(=O)c1ccco1)Cc1ccccc1,inactive: 33.5%
10,CCN(CC)C(=O)CSc1nc(N)c(C#N)c(-c2cccs2)c1C#N,inconclusive: -65.2%
11,CCc1c(C(=O)NC2CCCC2)csc1C,active: -99.4%
12,COc1ccc(CCNC(=O)c2cc3sccc3n2C)cc1OC,inconclusive: -48.1%
13,COc1ccc(C(=O)/C=C/Nc2ccc(S(=O)(=O)Nc3cccc(C(C)=O)c3)cc2)cc1,inactive: -21.1%
14,COc1cccc(NC(=O)CC2SC(=Nc3ccccc3)NC2=O)c1 (stereo not given),inactive: 34.6%
15,CC(=O)Nc1cccc(NC(=O)CSc2nnnn2C)c1,inactive: 21.4%
16,CCCC(=O)Nc1ccc(Oc2ccc(NC(=O)CCC)cc2)cc1,active: -100%
17,CC(C)NC(=O)c1onc(CSc2ccccc2)c1C(=O)O,inactive: 83.3%
18,Cc1c2c(nc3c(C(=O)NC4CCCCC4C)cnn13)CCCC2 (stereo not given),inconclusive: -63.1%
19,CCOc1cc(C(=O)NC)cc(OCC)c1OCC,inconclusive: -30.9%
20,COc1ccccc1CNC(=O)C1CCN(S(=O)(=O)N2CCCCC2)CC1,inconclusive: -38.6%
21,CSc1ccccc1NC(=O)CN(c1ccccc1)S(=O)(=O)N(C)C,inconclusive: -70.2%
22,COC(=O)c1cc(OC)c(OC)cc1NC(=S)Nc1cc(Cl)ccc1OC,inconclusive: -33.8%
23,O=C(NCc1ccccn1)c1cccs1,inconclusive: -62.1%

# Structural class: the compounds so far containing a halogen
row,SMILES,"activity change (PNC), negative = inhibition"
1,CCCC1(C(=O)OCC)NC(c2ccc(N(C)C)cc2)C2C(=O)N(c3ccc(F)cc3)C(=O)C21 (stereo not given),inconclusive: -64.3%
4,CCOC(=O)/C(=C\c1ccc(OC(F)F)cc1)C1=Nn2c(nnc2-c2ccc(Cl)cc2)SC1,inconclusive: -77.5%
22,COC(=O)c1cc(OC)c(OC)cc1NC(=S)Nc1cc(Cl)ccc1OC,inconclusive: -33.8%

# More compounds follow:

row,SMILES,"activity change (PNC), negative = inhibition"
1,CCc1ccc(-c2ccc(C(=O)O)cc2)nc1,inconclusive: -32.8%
2,O=C(Nc1cccnc1)c1cnc2ccccc2n1,active: -87.7%
3,O=S(=O)(c1ccc(N2CCN(c3ccc(F)cc3)CC2)cc1)N1CCCC1,inactive: 15.6%
4,Cc1cc(NS(=O)(=O)c2ccc(NC(=S)NC(=O)c3ccccc3)cc2)no1,inconclusive: -44.2%
5,CCOC(=O)CNC(=O)Nc1cccc(Cl)c1C,inconclusive: -55.1%
6,CCOC(=O)c1nnc(-c2ccccc2)o1,inconclusive: -36.6%
7,O=C(C1=NNCC1c1ccccc1)C1CO1 (stereo not given),inconclusive: -41.9%
8,Cc1cc(C)c2c(C)nn(C3CCCCC3)c2n1,inconclusive: -63.4%
9,Cc1ccccc1-c1nc(S(=O)(=O)c2ccc(Cl)cc2)c(NCCN2CCOCC2)o1,inconclusive: -30.5%
10,CCOC(=O)C(C)Sc1nc2c(cnn2-c2ccc(C)cc2)c(=O)[nH]1 (stereo not given),inactive: -25.8%
11,COCCn1c(SCC(N)=O)nc2c(c1=O)SC(C)C2 (stereo not given),inconclusive: -47%
12,CN(C)c1ccc(/C=N/NC(=S)NCc2ccccc2)cc1,inconclusive: -36.1%
13,COc1ccc(OC)c2c1nc1n2CCS1,inconclusive: -50.8%
14,CC1(C)CC(=O)C(C=NCc2ccccn2)=C(O)C1,inconclusive: -37.4%
15,CCc1nc(SCC(=O)Nc2ccc3c(c2)OCCO3)c2oc3ccccc3c2n1,inconclusive: -44.1%
16,CC1(C)C(c2ccco2)=[N+]([O-])C2(CCCCC2=O)N1O (stereo not given),inactive: 255%
17,CCOC(=O)C(NC(=O)Nc1ccc(O)cc1)(c1ccccc1)C(F)(F)F (stereo not given),inconclusive: -53.1%
18,O=C(Nc1nccs1)c1cccc(NC(=O)C2CC2)c1,inconclusive: -37.7%
19,CCCCc1ccc(NC(=O)COc2ccc(C(=O)Nc3ccccc3OC)cc2)cc1,inconclusive: -45.9%
20,CCCCCCOc1ccc(C(CC(=O)O)C(N)=O)cc1 (stereo not given),active: -104%
21,O=C(N/N=C/c1ccc(N2CCCCC2)o1)C(O)(c1ccccc1)c1ccccc1,inconclusive: -63.2%
22,Cn1c(=O)c2cc(S(=O)(=O)N3CCC(c4ccccc4)CC3)ccc2n(C)c1=O,inactive: 18.9%
23,O=C(c1sc2cc(F)ccc2c1Cl)N1CCN(c2cccc(Cl)c2)CC1,inconclusive: -45.9%

row,SMILES,"activity change (PNC), negative = inhibition"
1,Cc1cccn2c(=O)c3cc(C(=O)NC4CCCC4)c(=N)n(C4CCCC4)c3nc12,inactive: -21.7%
2,O=C(c1ccc([N+](=O)[O-])s1)N1CCN(c2ccccc2)CC1,inconclusive: -43.9%
3,CN(C)C(=O)NC(Nc1ccc(Cl)cc1Cl)C(Cl)(Cl)Cl (stereo not given),inconclusive: -55.9%
4,O=S(=O)(Nc1ncccn1)c1ccc(Nc2ncnc3ccccc23)cc1,inconclusive: -52.8%
5,C/C(N)=C(/C#N)C(=O)CSc1nc2ccccc2c(=O)n1CCCO,inconclusive: -54.9%
6,CCN1C(=O)c2ccccc2S(=O)c2ccc(C(=O)N3CCN(C(=O)c4ccco4)CC3)cc21 (stereo not given),inconclusive: -35.9%
7,CCOC(=O)N1CCN(C(=O)Cn2cc3c(n2)CCCC3)CC1,inconclusive: -45.3%
8,Nc1cccc(-c2cc(-c3ccccc3)nc(-c3cccc(N)c3)n2)c1,active: -112%
9,COc1ccc(CNC(=O)CN=C2NC(=O)C(c3ccccc3)(c3ccccc3)N2)cc1,inconclusive: -67%
10,COc1ccccc1Oc1nnnn1-c1ccc(C(N)=O)cc1,inactive: -0.195%
11,COCCN(C(=O)CNC(=O)c1ccco1)C(C(=O)NC1CCCCC1)c1cccs1 (stereo not given),inactive: 15.1%
12,CNC(=O)C1CC(=O)N(Cc2ccc3c(c2)OCO3)C(=Nc2ccc(F)cc2)S1 (stereo not given),inconclusive: -41.7%
13,O=C(NC(=S)Nc1cccc(Cl)c1N1CCCCC1)c1cccs1,active: -108%
14,COc1cc(/C=C/C(=O)OCC(=O)NCC2CCCO2)ccc1OCC#N (stereo not given),inconclusive: -30.5%
15,CCCOc1ccc(/C(O)=C2/C(=O)C(=O)N(c3cc(C)on3)C2c2ccc(C(=O)OC)cc2)cc1 (stereo not given),inconclusive: -59.9%
16,CCc1cc2c(=O)c(-c3nc4ccccc4n3C)coc2c(CN2CCOCC2)c1O,inconclusive: -46.4%
17,Cc1ccc(CC(=O)NC(C)CCc2ccccc2)cc1 (stereo not given),inconclusive: -30.4%
18,C=COC(=O)CSc1nc(-c2cccs2)ccc1C#N,inconclusive: -40.8%
19,CSc1ccc(/C=C(\C(=O)O)c2ccc(S(=O)(=O)N3CCCCC3)s2)cc1,inactive: 15.3%
20,CCOC(=O)c1ccccc1NC(=O)c1c(O)c2ccccc2n(CC)c1=O,inactive: 0.777%
21,CCOC(=O)C(C(=O)OCC)c1cc(Br)c2noc3c2c1C(=O)c1ccccc1-3,active: -82.9%
22,CC1CCOC2(O1)C(=O)N(CN1CCN(c3ccccc3F)CC1)c1ccccc12 (stereo not given),inconclusive: -46.4%
23,O=C(CCCSc1ccccc1)Nc1nc(-c2ccccn2)cs1,inactive: -13.2%

row,SMILES,"activity change (PNC), negative = inhibition"
1,O=C(Nc1cc2c(cc1Cl)OCCCO2)c1ccccc1,inconclusive: -33.5%
2,CCOC(=O)N/N=C/c1ccccc1OCc1ccc(Cl)cc1,inconclusive: -30.7%
3,O=C1/C(=C/c2cccs2)COc2ccccc21,inactive: -19.9%
4,CN(C)C(=O)C12CCC(C)(c3nc4ccccc4nc31)C2(C)C (stereo not given),inactive: 25.6%
5,Cc1nc2c3ccccc3n(Cc3ccccc3F)c2s1,inconclusive: -30.2%
6,Cc1cc(NC(=O)C2CC(c3ccc(Cl)cc3)=NO2)no1 (stereo not given),inconclusive: -33.8%
7,CC(CN1CCCCC1)OC(=O)c1ccccc1Cl (stereo not given),inconclusive: -78.5%
8,CC(C)CCn1c(O)c(N=Nc2ccccn2)c2ccccc21,inconclusive: -50.4%
9,CCC(C)NC(=O)CCC(=O)NNc1nc2ccccc2c2nc(C)nn12 (stereo not given),inconclusive: -44.1%
10,CCCCNC(=O)CSc1nc2cc(OC)c(OC)cc2c(=O)n1Cc1ccc(OC)cc1,inactive: -20.7%
11,COc1ccc(CN2C3CCCC2CC(NC(=O)Nc2ccccc2C)C3)cc1 (stereo not given),active: -100%
12,CCOC(=O)C(=O)N=Nc1c(O)[nH]c2ccccc12,inactive: 17.6%
13,CC1(C)CC(=O)C2=C(C1)N(c1ccc(Cl)cc1)C(=O)C2(O)C(F)(F)F (stereo not given),inconclusive: -55.6%
14,COC(=O)c1c(NC(=O)CC2SC(N)=NC2=O)sc2c1CCC(C(C)(C)C)C2 (stereo not given),inconclusive: -65.6%
15,COC(=O)Nc1ccc(NC(C)=O)cc1,inconclusive: -46.7%
16,C/C(=N/NC(=O)c1ccoc1C)c1ccc(NC(=O)c2ccncc2)cc1,inactive: -2.54%
17,Cc1[nH]nc2c1/C(=N/O)CC(c1ccccc1)C2 (stereo not given),inactive: 36.5%
18,CCOC(=O)N1CCN(C(=O)CN(c2ccc3c(c2)OCO3)S(C)(=O)=O)CC1,inconclusive: -79.6%
19,Cc1ccc(C)c(NS(=O)(=O)c2ccc(OCC(=O)N3CCOCC3)cc2)c1,inconclusive: -36%
20,CNC(=O)c1ccc(Nc2nnc(-c3ccc(C)c(S(=O)(=O)NCC4CCCO4)c3)c3ccccc23)cc1 (stereo not given),inactive: 34.3%
21,COc1cc2c(C(=O)N3CCN(C4CCCCC4)CC3)cn(CC(C)C)c(=O)c2cc1OC,inconclusive: -54.5%
